This passage reports binding results from US20120316107A1.

The chains behind the UniProt entries cited, without tags or fusion partners. Residues count along the entry.
UniProt P06213, residues 28-1382: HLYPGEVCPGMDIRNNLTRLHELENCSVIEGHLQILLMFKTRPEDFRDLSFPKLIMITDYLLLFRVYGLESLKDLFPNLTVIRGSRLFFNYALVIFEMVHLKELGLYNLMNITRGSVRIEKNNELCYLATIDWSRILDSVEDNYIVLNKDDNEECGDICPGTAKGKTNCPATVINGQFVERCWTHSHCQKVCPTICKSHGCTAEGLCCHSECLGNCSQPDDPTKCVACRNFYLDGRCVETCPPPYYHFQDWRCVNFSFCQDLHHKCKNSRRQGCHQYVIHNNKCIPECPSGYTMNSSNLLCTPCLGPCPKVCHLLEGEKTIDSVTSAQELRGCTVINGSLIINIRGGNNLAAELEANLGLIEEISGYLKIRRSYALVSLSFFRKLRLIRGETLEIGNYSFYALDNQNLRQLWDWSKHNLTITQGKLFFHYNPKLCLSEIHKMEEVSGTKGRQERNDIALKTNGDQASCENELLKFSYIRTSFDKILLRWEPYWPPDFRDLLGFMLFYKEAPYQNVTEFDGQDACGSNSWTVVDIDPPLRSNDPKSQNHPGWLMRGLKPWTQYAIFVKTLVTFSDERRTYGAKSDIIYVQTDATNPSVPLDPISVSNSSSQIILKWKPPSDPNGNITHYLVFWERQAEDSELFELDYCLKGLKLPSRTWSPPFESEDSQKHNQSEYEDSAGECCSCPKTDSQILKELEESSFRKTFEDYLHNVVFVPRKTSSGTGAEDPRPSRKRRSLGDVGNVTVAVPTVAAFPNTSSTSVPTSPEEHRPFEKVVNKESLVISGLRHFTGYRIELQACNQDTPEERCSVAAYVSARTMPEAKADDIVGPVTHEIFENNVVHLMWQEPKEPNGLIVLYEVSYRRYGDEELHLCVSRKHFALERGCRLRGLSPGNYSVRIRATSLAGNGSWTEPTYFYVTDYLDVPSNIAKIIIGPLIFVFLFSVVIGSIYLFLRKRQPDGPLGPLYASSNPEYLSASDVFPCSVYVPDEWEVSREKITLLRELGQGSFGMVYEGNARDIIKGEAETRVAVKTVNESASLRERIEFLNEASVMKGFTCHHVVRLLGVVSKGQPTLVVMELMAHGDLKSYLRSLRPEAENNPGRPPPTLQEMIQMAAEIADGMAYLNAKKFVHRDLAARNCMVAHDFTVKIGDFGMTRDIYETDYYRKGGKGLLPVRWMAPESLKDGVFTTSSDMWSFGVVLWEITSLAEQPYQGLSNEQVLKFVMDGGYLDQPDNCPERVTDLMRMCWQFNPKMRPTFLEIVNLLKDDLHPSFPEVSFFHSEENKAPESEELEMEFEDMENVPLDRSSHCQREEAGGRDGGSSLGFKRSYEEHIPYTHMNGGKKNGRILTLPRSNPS

No constants are given. Whether binding was seen depends on the method and setting. Some results given as binding are weak or reduced against the parent protein; the word gives no strength.

The experiment deals with human insulin receptor in a human placental membrane preparation (mixture of isoforms A and B) (human) (UniProt P06213). The experiment in a line: displacement of 125I-insulin from human placental membranes.

“57 mer single-chain insulin analogue (His^A8, Asp^B10, Asp^B28, Pro^B29; GGGPRR linker) (from UniProt P30407 25-110) (ligand)”: the binding entry is “binds”.
